Values quoted from earlier work, collected in patent publication US12296049B2, “Immediate release dosage form” (Kenvue Brands LLC, priority 2019, dated 2025).

Conditions: after oral administration, typical

Time to maximum plasma concentration: 1 to 2 h
SMILES: COc1ccc2cc([C@H](C)C(=O)O)ccc2c1 [naproxen sodium]
